These are yes or no findings as the source states them, for the method shown. In cells and extracts the contact can be indirect. Binding calls can cover weak binding; strength is not graded here. Sequences can lack the tags named with a protein.
T1: FLAG-tagged human RNase L (human) (UniProt Q05823)
T1 sequence: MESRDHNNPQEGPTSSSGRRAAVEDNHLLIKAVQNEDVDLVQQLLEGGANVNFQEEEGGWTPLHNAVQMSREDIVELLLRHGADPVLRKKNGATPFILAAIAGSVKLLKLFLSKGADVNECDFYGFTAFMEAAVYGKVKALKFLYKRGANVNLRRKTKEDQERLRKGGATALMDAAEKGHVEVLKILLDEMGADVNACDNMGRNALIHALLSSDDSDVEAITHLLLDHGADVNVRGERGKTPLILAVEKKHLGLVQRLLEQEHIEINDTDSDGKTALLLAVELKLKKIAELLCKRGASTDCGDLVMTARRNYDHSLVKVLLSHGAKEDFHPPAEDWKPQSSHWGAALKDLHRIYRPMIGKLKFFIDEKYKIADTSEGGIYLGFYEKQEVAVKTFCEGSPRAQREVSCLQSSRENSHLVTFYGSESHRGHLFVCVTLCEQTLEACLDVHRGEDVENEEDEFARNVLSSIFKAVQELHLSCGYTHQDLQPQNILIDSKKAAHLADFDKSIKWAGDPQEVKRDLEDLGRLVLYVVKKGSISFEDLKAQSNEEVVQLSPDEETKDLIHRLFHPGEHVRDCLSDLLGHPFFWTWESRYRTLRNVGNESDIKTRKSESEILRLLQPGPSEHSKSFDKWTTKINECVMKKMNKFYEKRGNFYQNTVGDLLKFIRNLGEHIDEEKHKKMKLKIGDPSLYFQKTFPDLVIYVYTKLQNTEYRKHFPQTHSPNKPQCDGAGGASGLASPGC


Key:
[1] = target: T1, FLAG-tagged human RNase L (human); assay: co-IP; HEK 293T treated with 1 uM MLN4924, cotransfected with pFLAG-CMV2-RNase L and pHTN-SA11NSP1; lysates at 24 h pt on anti-FLAG M2 magnetic beads; wash 50 mM Tris pH 7.4, 150 mM NaCl, 0.1% Tween 20; half of the beads treated with RNase A/T1 cocktail 15 min at 37 C; immunoblot with anti-HaloTag
[2] = target: Halo-tagged SA11 NSP1 (simian rotavirus SA11 (group A rotavirus)); assay: pull-down; reciprocal: the same HEK 293T lysates (MLN4924) on HaloLink resin; wash 50 mM Tris pH 7.4, 150 mM NaCl, 0.5% Triton X-100, 1 mg/mL BSA; half of the resin treated with RNase cocktail; immunoblot with anti-FLAG

Row | Molecule | binding [1] | binding [2]
1 | Halo-tagged SA11 NSP1 | binds | –
2 | FLAG-tagged human RNase L (enzyme, UniProt Q05823 1-741) MESRDHNNPQEGPTSSSGRRAAVEDNHLLIKAVQNEDVDLVQQLLEGGANVNFQEEEGGWTPLHNAVQMSREDIVELLLRHGADPVLRKKNGATPFILAAIAGSVKLLKLFLSKGADVNECDFYGFTAFMEAAVYGKVKALKFLYKRGANVNLRRKTKEDQERLRKGGATALMDAAEKGHVEVLKILLDEMGADVNACDNMGRNALIHALLSSDDSDVEAITHLLLDHGADVNVRGERGKTPLILAVEKKHLGLVQRLLEQEHIEINDTDSDGKTALLLAVELKLKKIAELLCKRGASTDCGDLVMTARRNYDHSLVKVLLSHGAKEDFHPPAEDWKPQSSHWGAALKDLHRIYRPMIGKLKFFIDEKYKIADTSEGGIYLGFYEKQEVAVKTFCEGSPRAQREVSCLQSSRENSHLVTFYGSESHRGHLFVCVTLCEQTLEACLDVHRGEDVENEEDEFARNVLSSIFKAVQELHLSCGYTHQDLQPQNILIDSKKAAHLADFDKSIKWAGDPQEVKRDLEDLGRLVLYVVKKGSISFEDLKAQSNEEVVQLSPDEETKDLIHRLFHPGEHVRDCLSDLLGHPFFWTWESRYRTLRNVGNESDIKTRKSESEILRLLQPGPSEHSKSFDKWTTKINECVMKKMNKFYEKRGNFYQNTVGDLLKFIRNLGEHIDEEKHKKMKLKIGDPSLYFQKTFPDLVIYVYTKLQNTEYRKHFPQTHSPNKPQCDGAGGASGLASPGC | – | binds

From PMC9765674
